Source: the supplement of paper PMC8728848
This is one part of the list.

Legend:
Experiment in all cases: glycan array binding signal (z-score within array); higher = stronger binding
Conditions in all cases: glycan notation: IUPAC condensed, linker removed
[1] = molecular target: Fuc(a1-2)[Gal(a1-3)]Gal(b1-4)GlcNAc(b1-2)Man(a1-3)[Fuc(a1-2)[Gal(a1-3)]Gal(b1-4)GlcNAc(b1-2)Man(a1-6)]Man(b1-4)GlcNAc(b1-4)GlcNAc
Procedure, shortened: (§1)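 Glycan array data came from 3228 arrays in the Consortium for Functional Glycomics database, and only arrays with an available protein sequence were kept. Glycan names were put into IUPAC-condensed notation, and columns mapping to the same glycan were averaged. The binding signal is a within-array Z-score, averaged across arrays of one protein sequence run at different concentrations or buffers and across linkers. A negative Z-score can be read as non-binding.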

[2] = molecular target: Fuc(a1-2)[Gal(a1-3)]Gal(b1-4)GlcNAc(b1-2)Man(a1-3)[Fuc(a1-2)[Gal(a1-3)]Gal(b1-4)GlcNAc(b1-2)Man(a1-6)]Man(b1-4)GlcNAc(b1-4)[Fuc(a1-6)]GlcNAc
Procedure, shortened: as §1

[3] = molecular target: Fuc(a1-2)[Gal(a1-3)]Gal(b1-4)GlcNAc(b1-3)GalNAc
Procedure, shortened: as §1

[4] = molecular target: Fuc(a1-2)[Gal(a1-3)]Gal(b1-4)GlcNAc(b1-3)[Fuc(a1-2)[Gal(a1-3)]Gal(b1-4)GlcNAc(b1-6)]GalNAc
Procedure, shortened: as §1

[5] = molecular target: Fuc(a1-2)[Gal(a1-3)]Gal(b1-4)GlcNAc(b1-6)GalNAc
Procedure, shortened: as §1

[6] = molecular target: Fuc(a1-2)[Gal(a1-3)]Gal(b1-4)[Fuc(a1-3)]Glc
Procedure, shortened: as §1

[7] = molecular target: Fuc(a1-2)[Gal(a1-3)]Gal(b1-4)[Fuc(a1-3)]GlcNAc
Procedure, shortened: as §1

[8] = molecular target: Fuc(a1-2)[Gal(a1-3)]Gal(b1-4)[Fuc(a1-3)]GlcNAc(b1-3)GalNAc
Procedure, shortened: as §1

[9] = molecular target: Fuc(a1-2)[Gal(a1-4)]Gal(b1-4)GlcNAc
Procedure, shortened: as §1

[10] = molecular target: Fuc(a1-2)[GalNAc(a1-3)]Gal
Procedure, shortened: as §1

[11] = molecular target: Fuc(a1-2)[GalNAc(a1-3)]Gal(b1-3)GalNAc(a1-3)[Fuc(a1-2)]Gal(b1-4)GlcNAc
Procedure, shortened: as §1

[12] = molecular target: Fuc(a1-2)[GalNAc(a1-3)]Gal(b1-3)GalNAc(b1-3)Gal(a1-4)Gal(b1-4)Glc
Procedure, shortened: as §1

[13] = molecular target: Fuc(a1-2)[GalNAc(a1-3)]Gal(b1-3)GlcNAc
Procedure, shortened: as §1

[14] = molecular target: Fuc(a1-2)[GalNAc(a1-3)]Gal(b1-3)GlcNAc(b1-2)Man(a1-3)[Fuc(a1-2)[GalNAc(a1-3)]Gal(b1-3)GlcNAc(b1-2)Man(a1-6)]Man(b1-4)GlcNAc(b1-4)GlcNAc
Procedure, shortened: as §1

[15] = molecular target: Fuc(a1-2)[GalNAc(a1-3)]Gal(b1-3)GlcNAc(b1-2)Man(a1-3)[Fuc(a1-2)[GalNAc(a1-3)]Gal(b1-3)GlcNAc(b1-2)Man(a1-6)]Man(b1-4)GlcNAc(b1-4)[Fuc(a1-6)]GlcNAc
Procedure, shortened: as §1

[16] = molecular target: Fuc(a1-2)[GalNAc(a1-3)]Gal(b1-3)GlcNAc(b1-3)GalNAc
Procedure, shortened: as §1

[17] = molecular target: Fuc(a1-2)[GalNAc(a1-3)]Gal(b1-3)GlcNAc(b1-6)GalNAc
Procedure, shortened: as §1

[18] = molecular target: Fuc(a1-2)[GalNAc(a1-3)]Gal(b1-4)Glc
Procedure, shortened: as §1

[19] = molecular target: Fuc(a1-2)[GalNAc(a1-3)]Gal(b1-4)GlcNAc
Procedure, shortened: as §1

[20] = molecular target: Fuc(a1-2)[GalNAc(a1-3)]Gal(b1-4)GlcNAc(b1-2)Man
Procedure, shortened: as §1

[21] = molecular target: Fuc(a1-2)[GalNAc(a1-3)]Gal(b1-4)GlcNAc(b1-2)Man(a1-3)[Fuc(a1-2)[GalNAc(a1-3)]Gal(b1-4)GlcNAc(b1-2)Man(a1-6)]Man(b1-4)GlcNAc(b1-4)GlcNAc
Procedure, shortened: as §1

[22] = molecular target: Fuc(a1-2)[GalNAc(a1-3)]Gal(b1-4)GlcNAc(b1-2)Man(a1-3)[Fuc(a1-2)[GalNAc(a1-3)]Gal(b1-4)GlcNAc(b1-2)Man(a1-6)]Man(b1-4)GlcNAc(b1-4)[Fuc(a1-6)]GlcNAc
Procedure, shortened: as §1

[23] = molecular target: Fuc(a1-2)[GalNAc(a1-3)]Gal(b1-4)GlcNAc(b1-3)Gal(b1-4)GlcNAc
Procedure, shortened: as §1

[24] = molecular target: Fuc(a1-2)[GalNAc(a1-3)]Gal(b1-4)GlcNAc(b1-3)Gal(b1-4)GlcNAc(b1-3)Gal(b1-4)GlcNAc
Procedure, shortened: as §1

[25] = molecular target: Fuc(a1-2)[GalNAc(a1-3)]Gal(b1-4)GlcNAc(b1-3)GalNAc
Procedure, shortened: as §1

[26] = molecular target: Fuc(a1-2)[GalNAc(a1-3)]Gal(b1-4)GlcNAc(b1-3)[Fuc(a1-2)[GalNAc(a1-3)]Gal(b1-4)GlcNAc(b1-6)]GalNAc
Procedure, shortened: as §1

[27] = molecular target: Fuc(a1-2)[GalNAc(a1-3)]Gal(b1-4)GlcNAc(b1-6)GalNAc
Procedure, shortened: as §1

[28] = molecular target: Fuc(a1-2)[GalNAc(a1-3)]Gal(b1-4)[Fuc(a1-3)]GlcNAc
Procedure, shortened: as §1

[29] = molecular target: Fuc(a1-2)[GalNAc(a1-3)]Gal(b1-4)[Fuc(a1-3)]GlcNAc(b1-3)GalNAc
Procedure, shortened: as §1

[30] = molecular target: Fuc(a1-2)[GalNAc(a1-4)]Gal(b1-4)GlcNAc
Procedure, shortened: as §1

[31] = molecular target: Fuc(a1-2)[GalNAc(b1-3)]Gal
Procedure, shortened: as §1

Fuc(a1-3)GlcNAc = molecular target: Fuc(a1-3)GlcNAc
Procedure, shortened: as §1

[32] = molecular target: Fuc(a1-3)[Gal(b1-4)]Glc6S
Procedure, shortened: as §1

[33] = molecular target: Fuc(a1-3)[Gal(b1-4)]GlcNAc
Procedure, shortened: as §1

[34] = molecular target: Fuc(a1-3)[Gal(b1-4)]GlcNAc(b1-2)Man
Procedure, shortened: as §1

[35] = molecular target: Fuc(a1-3)[Gal(b1-4)]GlcNAc(b1-2)Man(a1-3)[Fuc(a1-3)[Gal(b1-4)]GlcNAc(b1-2)Man(a1-6)]Man(b1-4)GlcNAc(b1-4)GlcNAc
Procedure, shortened: as §1

[36] = molecular target: Fuc(a1-3)[Gal(b1-4)]GlcNAc(b1-2)Man(a1-3)[Fuc(a1-3)[Gal(b1-4)]GlcNAc(b1-2)Man(a1-6)]Man(b1-4)GlcNAc(b1-4)[Fuc(a1-6)]GlcNAc
Procedure, shortened: as §1

[37] = molecular target: Fuc(a1-3)[Gal(b1-4)]GlcNAc(b1-3)Gal(b1-3)[Fuc(a1-4)]GlcNAc
Procedure, shortened: as §1

[38] = molecular target: Fuc(a1-3)[Gal(b1-4)]GlcNAc(b1-3)Gal(b1-4)[Fuc(a1-3)]GlcNAc
Procedure, shortened: as §1

[39] = molecular target: Fuc(a1-3)[Gal(b1-4)]GlcNAc(b1-3)Gal(b1-4)[Fuc(a1-3)]GlcNAc(b1-3)Gal(b1-4)[Fuc(a1-3)]GlcNAc
Procedure, shortened: as §1

[40] = molecular target: Fuc(a1-3)[Gal(b1-4)]GlcNAc(b1-3)GalNAc
Procedure, shortened: as §1

[41] = molecular target: Fuc(a1-3)[Gal(b1-4)]GlcNAc(b1-6)GalNAc
Procedure, shortened: as §1

[42] = molecular target: Fuc(a1-3)[Gal(b1-4)]GlcNAc(b1-6)[Gal(b1-3)GlcNAc(b1-3)]Gal(b1-4)Glc
Procedure, shortened: as §1

[43] = molecular target: Fuc(a1-3)[Gal(b1-4)]GlcNAc6S
Procedure, shortened: as §1

[44] = molecular target: Fuc(a1-3)[Gal3S(b1-4)]Glc
Procedure, shortened: as §1

B1: DCIR1 (Mus musculus), Q9QZ15 (protein)
chain: MASEITYAEVKFKNESNSLHTYSESPAAPREKPIRDLRKPGSPSLLLTSLMLLLLLLAITFLVAFIIYFQKYSQLLEEKKAAKNIMHNELNCTKSVSPMEDKVWSCCPKDWRLFGSHCYLVPTVSSSASWNKSEENCSRMGAHLVVIQSQEEQDFITGILDTHAAYFIGLWDTGHRQWQWVDQTPYEESITFWHNGEPSSGNEKCATIIYRWKTGWGWNDISCSLKQKSVCQMKKINL
[1]
  glycan array binding signal (z-score): -0.994
[2]
  glycan array binding signal (z-score): 2.28
[3]
  glycan array binding signal (z-score): -0.604
[4]
  glycan array binding signal (z-score): 0.352
[5]
  glycan array binding signal (z-score): 0.391
[6]
  glycan array binding signal (z-score): -0.227
[7]
  glycan array binding signal (z-score): -0.054
[8]
  glycan array binding signal (z-score): -0.077
[9]
  glycan array binding signal (z-score): 0.125
[10]
  glycan array binding signal (z-score): -0.4
[11]
  glycan array binding signal (z-score): -0.401
[12]
  glycan array binding signal (z-score): 0.099
[13]
  glycan array binding signal (z-score): -0.113
[14]
  glycan array binding signal (z-score): 0.373
[15]
  glycan array binding signal (z-score): -0.963
[16]
  glycan array binding signal (z-score): 0.659
[17]
  glycan array binding signal (z-score): -0.874
[18]
  glycan array binding signal (z-score): -1.04
[19]
  glycan array binding signal (z-score): -0.88
[20]
  glycan array binding signal (z-score): -0.386
[21]
  glycan array binding signal (z-score): 1.47
[22]
  glycan array binding signal (z-score): 0.512
[23]
  glycan array binding signal (z-score): 0.451
[24]
  glycan array binding signal (z-score): -0.906
[25]
  glycan array binding signal (z-score): -0.071
[26]
  glycan array binding signal (z-score): 0.094
[27]
  glycan array binding signal (z-score): 0.544
[28]
  glycan array binding signal (z-score): 0.173
[29]
  glycan array binding signal (z-score): -0.65
[30]
  glycan array binding signal (z-score): -0.76
[31]
  glycan array binding signal (z-score): 0.468
Fuc(a1-3)GlcNAc
  glycan array binding signal (z-score): 1.52
[32]
  glycan array binding signal (z-score): 1.57
[33]
  glycan array binding signal (z-score): -0.114
[34]
  glycan array binding signal (z-score): 0.449
[35]
  glycan array binding signal (z-score): 0.638
[36]
  glycan array binding signal (z-score): -0.034
[37]
  glycan array binding signal (z-score): -1.11
[38]
  glycan array binding signal (z-score): 0.215
[39]
  glycan array binding signal (z-score): -0.352
[40]
  glycan array binding signal (z-score): 1.51
[41]
  glycan array binding signal (z-score): 2.41
[42]
  glycan array binding signal (z-score): -0.775
[43]
  glycan array binding signal (z-score): 1.43
[44]
  glycan array binding signal (z-score): -0.579
